Data published in paper PMC8468769.

Sequences of proteins named here, by UniProt entry; tags and fusion partners are left off. A change or cut given only in a name is not applied to a line headed by its entry.
UniProt F7VN14: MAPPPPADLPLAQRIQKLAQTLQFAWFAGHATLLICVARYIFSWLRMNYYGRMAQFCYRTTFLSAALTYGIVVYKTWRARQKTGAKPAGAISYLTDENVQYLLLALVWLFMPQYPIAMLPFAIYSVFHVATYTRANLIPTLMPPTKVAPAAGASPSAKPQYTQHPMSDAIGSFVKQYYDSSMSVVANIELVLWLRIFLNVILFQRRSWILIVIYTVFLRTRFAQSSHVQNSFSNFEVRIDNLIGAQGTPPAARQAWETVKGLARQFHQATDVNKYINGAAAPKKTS
UniProt F7W1K8: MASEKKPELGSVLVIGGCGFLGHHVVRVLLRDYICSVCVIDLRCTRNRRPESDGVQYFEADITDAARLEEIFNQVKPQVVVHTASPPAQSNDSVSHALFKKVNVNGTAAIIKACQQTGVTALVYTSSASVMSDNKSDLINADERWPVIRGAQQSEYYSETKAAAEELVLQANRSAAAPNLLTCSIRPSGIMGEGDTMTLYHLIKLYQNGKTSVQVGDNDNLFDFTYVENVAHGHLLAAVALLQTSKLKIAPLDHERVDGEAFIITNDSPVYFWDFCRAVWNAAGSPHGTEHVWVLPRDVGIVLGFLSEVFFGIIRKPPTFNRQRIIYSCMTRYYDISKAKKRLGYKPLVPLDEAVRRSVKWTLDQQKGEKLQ
UniProt F7W1W1: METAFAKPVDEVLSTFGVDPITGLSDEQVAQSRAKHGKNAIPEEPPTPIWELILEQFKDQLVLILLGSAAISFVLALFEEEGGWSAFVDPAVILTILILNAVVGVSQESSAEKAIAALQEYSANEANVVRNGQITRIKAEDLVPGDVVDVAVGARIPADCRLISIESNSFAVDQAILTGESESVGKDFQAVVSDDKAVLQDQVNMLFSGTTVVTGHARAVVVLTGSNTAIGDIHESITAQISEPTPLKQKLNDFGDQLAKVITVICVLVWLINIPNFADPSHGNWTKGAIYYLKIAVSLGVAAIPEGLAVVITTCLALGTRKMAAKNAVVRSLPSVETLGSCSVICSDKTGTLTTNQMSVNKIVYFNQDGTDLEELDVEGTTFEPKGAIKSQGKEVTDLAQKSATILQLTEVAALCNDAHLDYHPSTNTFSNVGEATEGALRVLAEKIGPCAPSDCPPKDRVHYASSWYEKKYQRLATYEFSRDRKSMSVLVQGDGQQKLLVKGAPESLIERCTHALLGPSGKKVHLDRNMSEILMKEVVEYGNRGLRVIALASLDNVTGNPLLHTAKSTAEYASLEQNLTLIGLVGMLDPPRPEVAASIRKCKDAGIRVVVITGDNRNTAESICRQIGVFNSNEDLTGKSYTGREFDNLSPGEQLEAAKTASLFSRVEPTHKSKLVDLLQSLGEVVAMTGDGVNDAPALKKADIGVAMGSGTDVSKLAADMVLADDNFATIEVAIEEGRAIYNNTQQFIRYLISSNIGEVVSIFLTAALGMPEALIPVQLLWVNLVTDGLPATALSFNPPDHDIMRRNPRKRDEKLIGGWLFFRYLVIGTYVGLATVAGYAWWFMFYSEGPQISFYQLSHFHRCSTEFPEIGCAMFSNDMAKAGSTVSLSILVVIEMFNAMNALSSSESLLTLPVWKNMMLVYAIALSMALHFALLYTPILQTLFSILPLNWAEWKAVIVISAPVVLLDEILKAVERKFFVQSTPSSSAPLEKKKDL
UniProt F7WB25: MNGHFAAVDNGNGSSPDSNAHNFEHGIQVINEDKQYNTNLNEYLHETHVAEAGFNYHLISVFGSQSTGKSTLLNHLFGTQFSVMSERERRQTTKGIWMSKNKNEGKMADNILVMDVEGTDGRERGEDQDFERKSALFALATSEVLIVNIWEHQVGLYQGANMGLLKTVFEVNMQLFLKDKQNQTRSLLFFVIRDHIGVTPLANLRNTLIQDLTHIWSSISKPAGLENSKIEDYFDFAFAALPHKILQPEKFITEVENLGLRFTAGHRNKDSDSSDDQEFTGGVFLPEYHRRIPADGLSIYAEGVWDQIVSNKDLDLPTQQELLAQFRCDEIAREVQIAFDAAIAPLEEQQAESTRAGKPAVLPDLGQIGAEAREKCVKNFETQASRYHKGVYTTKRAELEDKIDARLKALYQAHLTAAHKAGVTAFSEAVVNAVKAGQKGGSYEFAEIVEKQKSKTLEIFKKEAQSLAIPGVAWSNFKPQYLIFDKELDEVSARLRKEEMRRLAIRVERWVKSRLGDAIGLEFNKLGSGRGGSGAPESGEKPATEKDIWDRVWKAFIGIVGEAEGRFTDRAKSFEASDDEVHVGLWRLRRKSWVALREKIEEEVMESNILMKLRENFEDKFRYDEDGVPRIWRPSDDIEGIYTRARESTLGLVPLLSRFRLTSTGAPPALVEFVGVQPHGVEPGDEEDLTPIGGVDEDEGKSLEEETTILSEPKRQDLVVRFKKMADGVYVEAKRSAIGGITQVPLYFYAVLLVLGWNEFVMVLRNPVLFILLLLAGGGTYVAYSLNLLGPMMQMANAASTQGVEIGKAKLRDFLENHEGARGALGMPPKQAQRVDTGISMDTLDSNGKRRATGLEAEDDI
UniProt F7VQK0: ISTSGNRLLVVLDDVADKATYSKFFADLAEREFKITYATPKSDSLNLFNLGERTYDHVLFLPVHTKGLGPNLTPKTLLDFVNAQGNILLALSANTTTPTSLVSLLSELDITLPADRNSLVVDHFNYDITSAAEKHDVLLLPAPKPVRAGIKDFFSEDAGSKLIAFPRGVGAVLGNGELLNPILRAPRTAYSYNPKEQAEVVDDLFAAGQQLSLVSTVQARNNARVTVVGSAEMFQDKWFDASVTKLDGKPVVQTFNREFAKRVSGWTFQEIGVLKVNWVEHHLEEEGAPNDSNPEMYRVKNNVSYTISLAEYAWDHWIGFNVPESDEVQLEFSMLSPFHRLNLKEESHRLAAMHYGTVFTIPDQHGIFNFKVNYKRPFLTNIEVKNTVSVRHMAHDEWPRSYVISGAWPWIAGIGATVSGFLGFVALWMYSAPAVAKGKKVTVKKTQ
UniProt F7VR85: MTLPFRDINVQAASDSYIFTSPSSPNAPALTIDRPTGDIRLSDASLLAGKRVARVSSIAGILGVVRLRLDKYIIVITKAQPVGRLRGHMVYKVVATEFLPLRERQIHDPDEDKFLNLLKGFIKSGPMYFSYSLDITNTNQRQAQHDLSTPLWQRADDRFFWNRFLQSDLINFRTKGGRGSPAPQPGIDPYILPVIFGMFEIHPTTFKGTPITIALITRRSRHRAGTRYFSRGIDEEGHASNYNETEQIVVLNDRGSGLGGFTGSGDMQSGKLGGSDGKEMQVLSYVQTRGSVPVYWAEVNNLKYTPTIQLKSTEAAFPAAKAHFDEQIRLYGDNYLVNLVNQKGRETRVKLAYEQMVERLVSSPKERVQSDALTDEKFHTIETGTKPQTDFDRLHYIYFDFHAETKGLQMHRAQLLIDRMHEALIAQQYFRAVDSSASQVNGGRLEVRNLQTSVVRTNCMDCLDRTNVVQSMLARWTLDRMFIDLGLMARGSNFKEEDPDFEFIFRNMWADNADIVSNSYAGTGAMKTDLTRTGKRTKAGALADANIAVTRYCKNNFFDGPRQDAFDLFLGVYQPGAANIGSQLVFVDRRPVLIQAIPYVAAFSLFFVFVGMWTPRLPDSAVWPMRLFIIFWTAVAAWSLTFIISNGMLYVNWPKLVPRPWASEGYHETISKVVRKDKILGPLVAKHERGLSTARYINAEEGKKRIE
UniProt F7W2Q6: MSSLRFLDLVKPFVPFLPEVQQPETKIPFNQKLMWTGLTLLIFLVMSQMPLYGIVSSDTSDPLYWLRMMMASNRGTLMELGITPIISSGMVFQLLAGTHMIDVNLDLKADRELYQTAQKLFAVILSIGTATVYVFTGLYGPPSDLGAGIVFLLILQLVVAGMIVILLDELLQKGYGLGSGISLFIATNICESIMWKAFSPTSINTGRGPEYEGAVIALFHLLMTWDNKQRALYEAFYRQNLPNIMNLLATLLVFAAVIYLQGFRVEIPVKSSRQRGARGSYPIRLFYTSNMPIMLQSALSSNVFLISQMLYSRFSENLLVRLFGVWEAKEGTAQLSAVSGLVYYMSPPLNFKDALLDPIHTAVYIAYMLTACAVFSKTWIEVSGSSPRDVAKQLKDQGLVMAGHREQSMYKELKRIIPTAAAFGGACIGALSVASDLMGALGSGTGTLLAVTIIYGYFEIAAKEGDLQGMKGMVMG
UniProt F7VTB9: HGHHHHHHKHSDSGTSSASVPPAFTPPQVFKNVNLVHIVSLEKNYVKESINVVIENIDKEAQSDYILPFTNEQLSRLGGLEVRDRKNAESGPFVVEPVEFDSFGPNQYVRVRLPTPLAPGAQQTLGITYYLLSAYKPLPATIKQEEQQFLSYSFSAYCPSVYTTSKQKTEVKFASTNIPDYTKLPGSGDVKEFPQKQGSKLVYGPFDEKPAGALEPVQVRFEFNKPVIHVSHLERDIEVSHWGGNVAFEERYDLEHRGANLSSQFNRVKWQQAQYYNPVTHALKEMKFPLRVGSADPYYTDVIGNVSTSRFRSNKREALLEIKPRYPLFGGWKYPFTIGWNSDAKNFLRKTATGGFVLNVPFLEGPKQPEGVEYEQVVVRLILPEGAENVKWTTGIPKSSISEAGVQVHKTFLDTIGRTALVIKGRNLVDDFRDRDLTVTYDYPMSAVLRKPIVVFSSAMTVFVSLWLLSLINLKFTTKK
UniProt F7VLY0: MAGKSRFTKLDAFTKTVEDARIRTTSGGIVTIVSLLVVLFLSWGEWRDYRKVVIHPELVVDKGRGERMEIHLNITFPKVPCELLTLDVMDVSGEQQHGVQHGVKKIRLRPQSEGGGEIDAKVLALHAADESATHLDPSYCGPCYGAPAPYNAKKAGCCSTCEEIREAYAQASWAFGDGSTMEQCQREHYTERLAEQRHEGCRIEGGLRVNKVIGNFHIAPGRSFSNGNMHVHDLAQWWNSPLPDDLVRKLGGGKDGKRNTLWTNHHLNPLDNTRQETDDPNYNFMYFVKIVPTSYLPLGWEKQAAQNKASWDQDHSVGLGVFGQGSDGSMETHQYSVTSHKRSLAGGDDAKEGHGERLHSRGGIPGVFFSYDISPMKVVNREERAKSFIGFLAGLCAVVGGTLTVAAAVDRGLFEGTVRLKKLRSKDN

B1: very-long-chain 3-oxoacyl-CoA reductase (SMAC_01146) (protein, UniProt F7VME1 1-339)
chain: MDKVAQVWGSVPQLWDSVPQYGQWALAGIGALYVATRVGAFLQLILNAFILSGTNLRKYGKKGTWAVVTGASDGLGKEFAQQLASKGFNLVLVSRTQSKLDTLARELELRWDGLKTKTFAMDFSKDDDSDYERLAELIKGLDIGILINNVGQSHSIPVPFLQTDRDELQNIVTINCLGTLKTTKVVAPILAQRKKGLILTMGSFAGVMPTPYLATYSGSKAFLQHWSSALSSELKDQGVDVHLVVSYLVTTAMSKIRRTSLLIPNPKQFVRSALGKVGLNSSEPFPNTYTPWWSHAVFKWVIENTVGVYSYFTLKLNKNMHVDIRNRALKKAAREAKKQ
B2: sterol 24-C methyltransferase (SMAC_01214) (protein, UniProt F7VQ64 1-382)
chain: MPSAPQVVALEKEDHQRDAEFKKVMHGDSAKAAGGVAALLKKNTEAQQIAVDEYFKHFDNKTAEGETQADREARTKEYATLTRHYYNLATDIYEYGWGQCFHFCRFSPGEPFYQAIARHEHYLASQIGIKKGMKVLDVGCGVGGPAREIAKFTDAHITGLNNNDYQIDRATHYAVRDGLSGQLKFVKGDFMQMSFPDNSFDAVYAIEATVHAPKLEGVYGEIYRVLKPGGVFGVYEWLMTDNYDNDNVEHRDIRLAIEVGNGISNMVPISEGLAAMKNVGFELLHHEDLADRNDPMPWYWPIAGELGYMQSYLDFFTVVRMTHTARRILHGFAGVLETVGLAPKGTKKTADALARGADGLVAGAKKNLFTPMYLMVGKKPLN
B3: cytochrome P450 51 (SMAC_05737) (protein, UniProt F7VT37 1-531)
chain: MGVLQVIAGPLSQQFSQLGTFSQIGVAIASFLFVAVALNVLQQFLFKKPNEPPLVFHWFPIIGSTITYGMDPPRFFKENREKYGDCFTFILLGKKTTVYVGPKGNDFILNGKIRDVNAEEIYTVLTTPVFGKDVVYDCPNSKLMEQKKFMKIALTTDAFRQYVPIISDEVTNYLKRSADFKGKSGIVDIPPKMAQITIFTASHALQGKEIRDKFDETLADLYHDLDMGFSPINFMLHWAPLPWNNRRDYAQRTVAKIYMDTIKERRARGETGAQDIMWHLMNSTYKGDVPVPDHEVAHMMIALLMAGQHSSSSTSSWIMLRLASRPDIMEDLYNEQVKALGADLPPLTYEDLAKLPLHAAIVKETLRLHAPIHSIMRAVKTPMPVPGTKYVIPTDHVLLAAPGVSATDECYFPQPELWEPRRWEKDSPLAPTIIRNVPAEEDDEKIDYGYGLVSKGANSPYLPFGAGRHRCIGEQFANVQLQTITAIIVRNFKFRNVDGSDKVIGTDYASLFSRPLEPAKIYWERREGCQL
B4: squalene monooxygenase (SMAC_00934) (protein, UniProt F7VNI0 1-524)
chain: MTIETDSAEVRNAQRREQHHEADVVIVGAGVFGCAAAYALANQGRSVILLERWMHEPDRIVGELLQPGGLQALQSFGLGHCVEGIDAITCYGYHVVFHGEEVAIPYPVVDDQGKVYSGEAAARVESTTTTTTSTPNGKTHNGPKLRRPEGRSFHHGRFISQLRKACAAHPNITMFETTVTSVIRGSHSEQVLGVETLTTDRETGEKQPDFFFGQLTLIADGYDSKFRKQLLPSGTTPVVRSKFYALELIDCPFPPSNYGHVVIGKTSPVLLYQIGTHETRALIDIPHNLTAASAANGGVRGYIENIVVPTLPESVRPSVLASLKDGKIPRSMPNSYLPASGKANTSRTPGVLLLGDAYNMRHPLTGGGMTVAFSDVVLLASLLHPDRVPNLADANAVEQAMKEFHWRRKAWTSIINTLAQALYSLFAADDWQLDALRKGCFAYFQMGGAKTDEPVALMGGLLHEPTVLARHFFTVAFVAIWLHWCERVGSFWGLWKAPLLLVDAVLILWRACVVFLPTIWKEAV
B5: C-4 methylsterol oxidase (SMAC_00952) (protein, UniProt F7VNJ9 1-306)
chain: MATAVLNATVAGLSSTDTYFTVLEEVSKYNVQLSYVEKLWAAWYLWMQNDTLATGLMSFFMHEIVYFGRSIPWMIIDALPMFNKYKLQKGKRPTWKEQFECAGLVLLSHCTVELPQIWLFHPIATYFGLDYGVPFPPLWKMALHICIFFVMEDAWHYWFHRALHYGPLYKAIHKIHHTYSAPFGLAAEYASPIEVMLLGIGTVGSPILWVSFTKDLHLATMYVWIVLRLFQAIDAHSGYDFPFSLRHILPFWAGADHHDMHHERFIGNYASSFRWWDYCLDTEAGDVAAKARREKKLAAIKAKKAQ
B6: squalene synthase (SMAC_07413) (protein, UniProt F7VM49 1-484)
chain: MGAFTKAAYFLLHPNQLRSIVQWKVWHDPVHKRDPSKETETEKACFRHLELTSRSFSAVIQELNPELLMPICLFYLVLRGLDTIEDDMTIDLAKKEPLLRGFADLMEIDGWTFTENGPNEKDRELLVHFDDVISELKKVKKPYYDIIREITVKMGNGMADYALNAEHNTNGVNTIEEYELYCHYVAGLVGEGLTRLFVESDLANPALLERMELTESMGQFLQKTNIIRDIHEDFVDKRRFWPKTIWSKYVNNWEDMFKLENREKALQCSSEMVLNALKHTEECLFYMAGIRDQSVFNFVAIPQAMAIATLELVFRNPAIFERNVKITKGDACQLMMESTQNLRVLCEVFRRYARRIHKKNDPRDPNYLAISVQCGKIEQFIESIFPTQDPKKIALTQVQNTNAESVNTMDTGETTFLVASVLGVLFVIGGLMMGAAWLMGARFDMAYDDITSRVGTLVKGAAEVSSVTVSSITSIPTTVVHQEL
B7: cytochrome P450 4A5 (SMAC_05894) (protein, UniProt F7W3F4 1-540)
chain: MAFGAAHLQLWLGALVVLGAVYTTCLVVYRLFLHPLAKYPGPLLAKLTDGYMAYHAFKGDRHLEFWRMHEKYGKFVRFGPNSLSVNSNTALKEIYGFKANVRKAEFYDAFVHPAPNTHNARDRDLHARKRRVLAHAFSDSAVKEVERYILANIRTFCDAIGDLGRSTVTSGFALADKKGWSTPKNMSDWCNWLAMDILGDLCFGKAFHMLEKPDNRYAVDLVSVAAHRHLICGTMPMLDKLSLDKIFLRKIASGRAQYMAYSRQQLAERTALGDETDRRDFFYHLLKARDPETGQGFTTPELWGESNLLIIAGSDTTSTAMAATLFYLVRNPSALARVTQEIRSRFSSVEDIHQGPALQSCTYLRACVDEAMRLSPSVGGLLPREVLPGGITIDGEHVPQGTIVGVPHYTIHHNAAYYPDPWSFTPERWLPTSTSSVATEKGVTATEEQIQLAQSAFCPFSIGPRGCIGKGLAYIEMSITLARTLFLYDLRRAVGVEDAAEGGKEGAEYGRHRKGEMQLVDTFTSTKDGVMIEFRRRDDL

Each molecule was assayed against SmPOM33-TagRFP-T (Sordaria macrospora) (UniProt F7VN14) (assay: affinity purification with mass spectrometry; POM33-TagRFP-T precipitated from S. macrospora mycelium lysate (lysis buffer without NP-40) with anti-TagRFP-T antibody and Protein G Dynabeads, 4 °C; control free TagRFP-T strain; LC/MS with label-free quantification, FDR 0.01, S0 0.1; two experiments, seven samples).

binding, binds:
C-3 sterol dehydrogenase/C-4 decarboxylase (SMAC_04350) (from UniProt F7W1K8), calcium-transporting ATPase SmNCA1 (SMAC_04583) (from UniProt F7W1W1), SEY1 (SMAC_08906) (from UniProt F7WB25), dolichyl-diphosphooligosaccharide-protein glycosyltransferase subunit WBP1 (SMAC_01348) (from UniProt F7VQK0), putative phosphatidyl inositol 4-phosphatase SAC1 (SMAC_01583) (from UniProt F7VR85), transport protein SEC61 subunit alpha (SMAC_05120) (from UniProt F7W2Q6 1-476), dolichyl-diphosphooligosaccharide-protein glycosyltransferase subunit 1 (SMAC_05819) (from UniProt F7VTB9), homolog of the S. cerevisiae COPII-coated vesicle protein ERV46 (SAMC_04901) (from UniProt F7VLY0), B1, B2, B3, B4, B5, B6, B7

These are yes or no findings as the source states them, for the method shown. Binding seen in cells or lysates may run through a third protein. A yes stands for co-enrichment or nearness to the bait. Other partners may have been found.
